In assay [1] the target is human ASGR1 (asialoglycoprotein receptor 1) on cells (human) (UniProt P07306). The assay can be described thus: Guava flow cytometry screen on HepG2 cells. For orientation: Flow cytometry measures light scatter and fluorescence of single cells or particles in a stream.
Assay [2] shares this target. The assay can be described thus: flow cytometry on HepG2 cells.
The target is the same in assay [3]. The assay can be described thus: flow cytometry on HepG2 cells, anti-human IgG PE secondary, MFI (Geo Mean).

Chains of the proteins cited; added tags and fusions are not shown.
UniProt P07306: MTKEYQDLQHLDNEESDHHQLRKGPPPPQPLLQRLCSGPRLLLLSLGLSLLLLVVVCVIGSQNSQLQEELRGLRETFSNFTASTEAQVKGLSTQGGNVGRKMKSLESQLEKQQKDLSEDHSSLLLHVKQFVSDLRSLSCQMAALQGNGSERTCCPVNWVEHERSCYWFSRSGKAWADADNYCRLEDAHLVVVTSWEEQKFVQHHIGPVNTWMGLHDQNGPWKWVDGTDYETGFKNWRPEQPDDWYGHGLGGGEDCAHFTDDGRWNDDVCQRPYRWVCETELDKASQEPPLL

These are yes or no findings as the source states them, for the method shown. Some results given as binding are weak or reduced against the parent protein; the word gives no strength.

B1: hzL4L-7 (antibody, IgG1, V domains shown)
VH: QVQLQESGPGLVKPSQTLSLTCTVSGYSISSDYAWNWIRQHPGKGLEWIGYISYSGSTRYNPSLKSRVTITRDTSKNQFSLKLSSVTAADTAVYYCARRYRYDEGYGMDYWGQGTTVTVSS
VL: DIQMTQSPSSLSASVGDRVTITCRASENIYSNLAWYQQKPGKAPKLLIYAATNLADGVPSRFSGSGSGTDFTLTISSLQPEDFATYYCQHFWGTPPWTFGGGTKVEIK
As to B1, the binding entry in assay [1], in assay [2] and in assay [3] was “binds” each time.

B2: hzL4L-3 (antibody, IgG1, V domains shown)
VH: QVQLQESGPGLVKPSQTLSLTCTVSGYSITSDYAWNWIRQHPGKGLEWIGYISYSGSTRYNPSLKSRISITRDTSKNQFSLKLSSVTAADTAVYYCARRYRYDEGYGMDYWGQGTTVTVSS
VL: DIQMTQSPSSLSASVGDRVTITCRASENIYSNLAWYQQKPGKAPKLLIYAATNLADGVPSRFSGSGSGTDFTLTISSLQPEDFATYYCQHFWGTPPWTFGGGTKVEIK
With B2, the binding entry in assay [1] was “binds”.

B3: hzL4L-14 (antibody, IgG1, V domains shown)
VH: QVQLQESGPGLVKPSQTLSLTCTVSGYSISSDYAWNWIRQHPGKGLEWIGYISYSGSTRYNPSLKSRVTITRDTSKNQFSLKLSSVTAADTAVYYCARRYRYDEGYGMDYWGQGTTVTVSS
VL: DIQMTQSPSSLSASVGDRVTITCRASENIYSNLAWYQQKPGKAPKLLIYAATNLAEGVPSRFSGSGSGTDFTLTISSLQPEDFATYYCQHFWGTPPWTFGGGTKVEIK
Consider B3, for which the binding entry in assay [2] and in assay [3] was “binds” throughout.

B4: hzL4L-11 (antibody, IgG1, V domains shown)
VH: QVQLQESGPGLVKPSQTLSLTCTVSGYSITSDYAWNWIRQHPGKGLEWIGYISYSGSTRYNPSLKSRISITRDTSKNQFSLKLSSVTAADTAVYYCARRYRYDEGYGMDYWGQGTTVTVSS
VL: DIQMTQSPSSLSASVGDRVTITCRASENIYSNLAWYQQKPGKAPKLLIYAATNLAEGVPSRFSGSGSGTDFTLTISSLQPEDFATYYCQHFWGTPPWTFGGGTKVEIK
Regarding B4, the binding result in assay [1] is “binds”.

B5: hzL4L-4 (antibody, IgG1, V domains shown)
VH: QVQLQESGPGLVKPSQTLSLTCTVSGYSITSDYAWNWIRQHPGKGLEWIGYISYSGSTRYNPSLKSRVTISVDTSKNQFSLKLSSVTAADTAVYYCARRYRYDEGYGMDYWGQGTTVTVSS
VL: DIQMTQSPSSLSASVGDRVTITCRASENIYSNLAWYQQKPGKAPKLLIYAATNLADGVPSRFSGSGSGTDFTLTISSLQPEDFATYYCQHFWGTPPWTFGGGTKVEIK
Regarding B5, the binding result in assay [1] is listed as “binds”.

B6: hzH8K-1 (antibody, IgG1, V domains shown)
VH: QVQLQESGPGLVKPSQTLSLTCTVSGGSISSDYAWNWIRQHPGKGLEWIGYRSYRGSTSYNPSLKSRVTISVDTSKNQFSLKLSSVTAADTAVYYCARRGYYGSSSHWYFDVWGQGTTVTVSS
VL: DIQMTQSPSSLSASVGDRVTITCRASENIYSYLAWYQQKPGKAPKLLIYNAKTLAEGVPSRFSGSGSGTDFTLTISSLQPEDFATYYCQHHYGTPLTFGGGTKVEIK
Regarding B6, the binding entry in assay [2] and in assay [3] was “binds” throughout.

B7: hzH8K-10 (antibody, IgG1, V domains shown)
VH: QVQLQESGPGLVKPSQTLSLTCTVSGGSISSDYAWNWIRQHPGKGLEWIGYRSYRGSTSYNPSLKSRVTITRDTSKNQFSLKLSSVTAADTAVYYCARRGYYGSSSHWYFDVWGQGTTVTVSS
VL: DIQMTQSPSSLSASVGDRVTITCRASENIYSYLAWYQQKPGKAPKLLIYNAKTLAEGVPSRFSGSGSGTDFTLTISSLQPEDFATYYCQHHYGTPLTFGGGTKVEIK
For the molecule B7, the binding entry in assay [2] and in assay [3] was “binds” throughout.

B8: L4L (parental chimeric antibody of Table 7) (antibody, IgG1, V domains shown)
VH: DVQLQESGPGLVKPSQSLSLTCTVTGYSITSDYAWNWIRQFPGNKLEWMGYISYSGSTRYNPSLKSRISITRDTSKNQFFLQLNSVTTEDTATYYCARRYRYDEGYGMDYWGQGTSVTVSS
VL: DIQMTQSPASLSVFVGEIVTITCRASENIYSNLAWYQQKQGKSPQLLVYAATNLADGVPSRFTGSGSGTQFSLKINSLQSEDFGNYYCQHFWGTPPWTFGGGTKLEIK
For B8, in assay [1], the binding result is listed as “binds”.

(Values after patent US20210130473A1, “TGFßR1 INHIBITOR-ASGR ANTIBODY CONJUGATES AND USES THEREOF” (Silverback Therapeutics, Inc., priority 2019, published 2021).)
